Measurements from “University of Dundee, Small-Polar-MMV Screening Library” (2021), ChEMBL document CHEMBL3988442.

Amino acid sequences for entries named in this document (tags omitted).
UniProt P9WPC5, whole entry: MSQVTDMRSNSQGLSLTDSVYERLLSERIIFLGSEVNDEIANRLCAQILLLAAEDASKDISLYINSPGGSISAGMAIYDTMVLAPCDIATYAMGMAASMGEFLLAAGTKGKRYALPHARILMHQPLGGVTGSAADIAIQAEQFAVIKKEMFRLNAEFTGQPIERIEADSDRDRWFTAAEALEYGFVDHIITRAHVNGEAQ
UniProt P9WPC3, whole entry partner: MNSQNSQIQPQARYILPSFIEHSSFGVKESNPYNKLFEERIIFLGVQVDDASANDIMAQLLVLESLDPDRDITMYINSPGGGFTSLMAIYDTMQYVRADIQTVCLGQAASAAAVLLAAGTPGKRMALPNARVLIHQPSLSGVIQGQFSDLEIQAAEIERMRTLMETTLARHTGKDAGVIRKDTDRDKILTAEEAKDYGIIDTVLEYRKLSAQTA

The filed quantity is “Percent Effect” (%).
The controls that fix the scale are not given in the record; negative values are as filed.
Compounds were drawn at random from those tested, without regard to their results.

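Protease assay of ClpP1P2, read by the AMC dye that it sets free. Target: ClpP1P2, Mycobacterium tuberculosis (UniProt P9WPC5 and UniProt P9WPC3). Tested at 50 µM. Higher reads as stronger inhibition, judged from the few compounds that gave an IC50. Most other retested compounds had strongly negative values. About 69,000 compounds were tested under these conditions; 0.015% (about 10) showed 50% or more at least once.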

{"structure": "Cc1ncsc1C(=O)N1CCCC1c1c(C)nn(C)c1C", "stereo": "stereo not given", "percent effect": -4.01}
{"structure": "CCn1c(CN(C)C(C)CSC)nc2c(F)cccc21", "stereo": "stereo not given", "percent effect": -0.5411}
{"structure": "CCOc1ccc(Br)cc1-c1cc(N)[nH]n1", "percent effect": -6.151}
{"structure": "CO[C@@H]1CC[C@@H](N(C)C(=O)c2cn3cc(C)ccc3n2)[C@H]1O", "percent effect": -7.947}
{"structure": "CC(=O)NCCc1ccc(S(=O)(=O)N(C)C(C)CC(C)C)s1", "stereo": "stereo not given", "percent effect": -1.954}
{"structure": "NC(=O)C1CCN(C(=O)c2ccc(OCc3cscn3)cc2)CC1", "percent effect": 1.672}
{"structure": "CCc1nnc2n1CCN(C(=O)c1cnc3ccccc3n1)C2", "percent effect": -5.313}
{"structure": "CCn1cc(N2Cc3nc(N4CCN(C)CC4)ncc3C2=O)cn1", "percent effect": 5.868}
{"structure": "CC(C)c1cc(NC(=O)CN2CCc3nn(C)c(=O)cc3C2)on1", "percent effect": -4.238}
{"structure": "Fc1cnc(N2CCC3(CC2)CN(Cc2ccccn2)CCO3)nc1", "percent effect": 12.45}
{"structure": "CC(C)Cc1cc(C(=O)NC(C)(CO)CO)n(C)n1", "percent effect": 1.641}
{"structure": "O=S(=O)(CCCN1CCOC(Cn2cccn2)C1)c1ccccc1", "stereo": "stereo not given", "percent effect": -1.418}
{"structure": "O=C1CCN(C(=O)c2csc(-c3ccc(C(F)(F)F)cc3)n2)CCN1", "percent effect": -3.577}
{"structure": "CC(=O)N1CC[C@H]2OCC[C@@H](C(=O)Nc3cccnc3C)[C@H]2C1", "percent effect": 2.489}
{"structure": "Cc1cc(COC(=O)[C@@H]2Cc3ccccc3CN2S(C)(=O)=O)no1", "percent effect": -16.38}
{"structure": "Cc1noc(C)c1C(C)NC(=O)N1CCN(c2cccs2)CC1", "stereo": "stereo not given", "percent effect": 10.6}
{"structure": "CC(C)C1CN(C(=O)c2ccc(C(N)=O)cc2)CCS1", "stereo": "stereo not given", "percent effect": -14.75}
{"structure": "Cc1nn(C)c2ncc(C(=O)N3CCNC(=O)C3)cc12", "percent effect": 12.55}
{"structure": "COC(=O)c1ccc(S(=O)(=O)NCC(O)c2sccc2C)cc1", "stereo": "stereo not given", "percent effect": -6.123}
{"structure": "COc1ccc(-c2csc3c2c(N)nc(=O)n3CCN(C)C)cc1", "percent effect": -2.503}
{"structure": "O=C(NCC1CC1)c1cc2c(s1)CCN2c1ncccn1", "percent effect": -7.827}
{"structure": "CC(O)CN1CCC(CNCc2ccccc2C(F)(F)F)CC1", "stereo": "stereo not given", "percent effect": -13.82}
{"structure": "Cc1nc(-c2ccccc2)n(CC(=O)NC(C)C2CC2)n1", "stereo": "stereo not given", "percent effect": 5.806}
{"structure": "CC(C)c1nc2n(n1)CC(Nc1ncnc3c1CCC3)CC2", "stereo": "stereo not given", "percent effect": -2.409}
{"structure": "CC(C(=O)O)n1nc(C(F)(F)F)c(Br)c1C1CC1", "stereo": "stereo not given", "percent effect": -20.37}
{"structure": "CCn1cc(CN2CCCN(C(=O)CCSC)CC2)cn1", "percent effect": 14.45}
{"structure": "CC(C)C(NC(=O)c1ccc(Cl)cc1Cl)C(=O)Nc1ccn(C)n1", "stereo": "stereo not given", "percent effect": -6.62}
{"structure": "CS(=O)(=O)CCCNC1CCCN(Cc2noc(C3CC3)n2)C1", "stereo": "stereo not given", "percent effect": 17.57}
{"structure": "COc1ccc(C(CC(=O)NCc2n[nH]c(N)n2)c2ccccc2)cc1", "stereo": "stereo not given", "percent effect": -5.892}
{"structure": "Cc1ccc(CNC(=O)Nc2nccs2)cn1", "percent effect": -9.789}
{"structure": "CSc1ccc(C(=O)N2C[C@H]3CC[C@@H]2CN(Cc2ccccc2)C3)cc1", "percent effect": -15.47}
{"structure": "Cn1cnc2c1C(COCC1CC1)CN(C(=O)c1cscn1)C2", "stereo": "stereo not given", "percent effect": 5.801}
{"structure": "Cc1nn2cnnc2c(C)c1CCC(=O)Nc1nnc(C(C)C)s1", "percent effect": 20.14}
{"structure": "CCCNC(=O)CN1CCC(C(=O)Nc2cnn(CC)c2)CC1", "percent effect": -6.268}
{"structure": "Cn1nnnc1SCC(=O)N1CCN(C(=O)C2CC2c2cccs2)CC1", "stereo": "stereo not given", "percent effect": 0.391}
{"structure": "COC1CCN(C(=O)Cc2csc(-c3ccc(F)cc3)n2)CC1", "percent effect": -19.04}
{"structure": "COc1ccc(-c2cc[nH]n2)cc1CNC1CCCC1", "percent effect": -1.95}
{"structure": "O=S1(=O)CCC(CNS(=O)(=O)N2CCc3ccccc3C2)C1", "stereo": "stereo not given", "percent effect": 4.135}
{"structure": "Cc1cncnc1C1CCN(CC(N)=O)CC1", "percent effect": -12.4}
{"structure": "Cn1nc(-c2cccs2)cc1[C@H]1CN2CC[C@H]1C[C@@H]2CNS(C)(=O)=O", "percent effect": -6.94}
{"structure": "CC(Cn1cccn1)NCc1csc(-c2ccsc2)n1", "stereo": "stereo not given", "percent effect": -2.327}
{"structure": "Cc1cnn(CC(C)NCC(=O)NC2CCOCC2)c1", "stereo": "stereo not given", "percent effect": -0.5109}
{"structure": "CC(CCSc1ccccc1)N1CCN(C(=O)c2ccccc2O)CC1", "stereo": "stereo not given", "percent effect": 15.06}
{"structure": "CC(Cc1ccc(Cl)cc1)N(C)C(=O)NCCS(C)(=O)=O", "stereo": "stereo not given", "percent effect": -7.097}
{"structure": "CCc1nnc2n1CCN(C(=O)c1ccccc1OCC1CC1)C2", "percent effect": -0.09981}

Some entries from above, unchanged:

| structure | percent effect |
|---|---|
| `COc1ccc(-c2cc[nH]n2)cc1CNC1CCCC1` | -1.95 |
| `CC(C)C(NC(=O)c1ccc(Cl)cc1Cl)C(=O)Nc1ccn(C)n1` (stereo not given) | -6.62 |
| `Cc1cnn(CC(C)NCC(=O)NC2CCOCC2)c1` (stereo not given) | -0.5109 |